The name of at least one read-out is uncertain.
System: DENV-2 16681 strain
Experiment: DENV-2 antiviral assay (eGFP-labeled virus, Vero cells)
Type: cell-based, Dengue virus
Details: SI=CC50/EC50, DENV-2 antiviral assay
Experimental: The antiviral activity of all the compounds of the invention was tested against the DENV-2 16681 strain which was labeled with enhanced green fluorescent protein (eGPF). The culture medium consists of minimal essential medium supplemented with 2% of heat-inactivated fetal calf serum, 0.04% gentamycin (50 mg/mL) and 2 mM of L-glutamine. Vero cells, obtained from ECACC, were suspended in culture medium and 25 μL was added to 384-well plates (2500 cells/well), which already contain the antiviral compounds. Typically, these plates contain a 5-fold serial dilution of 9 dilution steps of the test compound at 200 times the final concentration in 100% DMSO (200 nL). […] At the day of the read out, the eGFP fluorescence was measured using an automated fluorescence microscope at 488 nm (blue laser). Using an in-house LIMS system, inhibition dose response curves for each compound were calculated and the half maximal effective concentration (EC50) was determined. Therefore, the percent inhibition (I) for every test concentration is calculated using the following formula: I=100*([…])/(SVC−SCC); ST, SCC and SVC are the amount of eGFP signal in the test compound, cell control and virus control wells, respectively. […] The EC50 is calculated using linear interpolation (Table 1).

COc1cc(NC(C(=O)c2c[nH]c3cc(F)ccc23)c2ccc(Cl)cc2OC)cc(OCCOP(=O)(O)O)c1 (single isomer, unassigned) [13A-P^b]
SI: 23000 | SI (listed as 13A-P^c): 18700
